Values quoted from earlier work as cited in patent US20180217163A1, “TREATMENT OF NEURODEGENERATIVE CONDITIONS USING PKC ACTIVATORS AFTER DETERMINING THE PRESENCE OF THE APOE4 ALLELE” (priority 2015, published 2018).
At least one compound was matched to its structure with a doubt left.

Target: PKC
Conditions: read-out: Kd of PKC activation; cited from earlier work

CC(C)=CCC/C(C)=C/CC/C(C)=C/CSc1nc[nH]n1 [Farnesyl thiotriazole]
Kd: 2.5 µM
